Measurements taken from PubChem BioAssay AID328 (DTP/NCI, 2004).
The list is a part of this screen's results and no random one: it gathers tests that were run many times, whatever their T/C, doses with no T/C, and many T/C values between a quarter and a half above the control. Other doses and runs of a compound stand elsewhere. T/C is the treated group as % of the vehicle group. Some entries give survivors of the animals treated and no T/C: the source files T/C as zero there, which appears to mark a toxic dose or a test without result, not a measured value. Some survivor counts are full or nearly so, which does not show that the dose was tolerated: the source hardly ever lists a survival T/C far under the control, and the zero likely stands for such cases as well. Survivors were counted at the toxicity check, usually on the fifth day, unless a day is given; later deaths do not show. Schedule codes are those of the source, taken here to give the interval after Q, in days (D) or hours (H), and the number of doses after X. Some structures stand for samples that the source files as different forms (salt, stereo form or complex); doses refer to the form tested. Where survival is the endpoint, this PubChem deposit counts one and a half times the control or more as active, and values a quarter to a half above the control carry no call in these data; other NCI protocols may use other cut-offs. Some T/C values carry the count of animals alive at the toxicity check (mostly the fifth day); where none is given, no animal had died by that day.

Tested on: BDF1 mice, P388 leukemia ip, median survival T/C
Assay: NCI In Vivo Anticancer Drug Screen. Data for tumor model P388 Leukemia (intraperitoneal) in B6D2F1 (BDF1) mice
Conditions: T/C endpoint: median survival time, higher T/C = longer survival
Outline: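 Reported as T/C, where T is the survival measurement in dosed animals and C the same measurement in vehicle controls.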

[1] = dose: 200.0 mg/kg/injection, schedule: Q01DX009 (ip), vehicle: saline with Tween-80
[2] = dose: 100.0 mg/kg/injection, schedule: Q01DX009 (ip), vehicle: saline with Tween-80
[3] = dose: 100.0 mg/kg/injection, schedule: Q01DX009 (ip), vehicle: saline
[4] = dose: 400.0 mg/kg/injection, schedule: Q04DX003 (ip), vehicle: Klucel (hydroxypropylcellulose) (HPC)
[5] = dose: 400.0 mg/kg/injection, schedule: Q04DX003 (ip), vehicle: saline with Tween-80
[6] = dose: 50.0 mg/kg/injection, schedule: Q01DX009 (ip), vehicle: saline with Tween-80
[7] = dose: 200.0 mg/kg/injection, schedule: Q01DX009 (ip), vehicle: water
[8] = dose: 25.0 mg/kg/injection, schedule: Q01DX009 (ip), vehicle: water
[9] = dose: 50.0 mg/kg/injection, schedule: Q04DX003 (ip), vehicle: water
[10] = dose: 48.0 mg/kg/injection, schedule: Q01DX009 (ip), vehicle: saline + alcohol
[11] = dose: 400.0 mg/kg/injection, schedule: Q04DX003 (ip), vehicle: saline
[12] = dose: 12.5 mg/kg/injection, schedule: Q01DX009 (ip), vehicle: saline with Tween-80

Question: How did the survivor count [1] turn out when `Nc1[nH]c(=O)ncc1[N+](=O)[O-]` was run?
Answer: 5 of 6

Question: What does the source list for `OC(c1cc(-c2ccc(C(F)(F)F)cc2)nc(C(F)(F)F)c1)C1CCCCN1` (stereo not drawn)?
Answer: survivor count (dose: 50.0 mg/kg/injection, schedule: Q01DX009 (ip), vehicle: saline): 3 of 6; survivor count [2]: 2 of 6; survivor count [3]: 0 of 6; survivor count [1]: 0 of 6; survivor count (dose: 200.0 mg/kg/injection, schedule: Q01DX009 (ip), vehicle: saline): 0 of 6

Question: How did the survivor count [4] turn out when `CC(=O)Nc1ccccc1F` was run?
Answer: 0 of 6

Question: For `CCOC(=O)c1c[nH]c2c(OC)cccc2c1=O`, which survivor count [5] is on record?
Answer: 2 of 6

Question: Which survivor count [6] does the source give for `CCN(C)c1ccc(/C=C/c2ccnc3ccccc23)cc1` here?
Answer: 6 of 6

Question: And the survivor count [2]?
Answer: 6 of 6

Question: And the survivor count [1]?
Answer: 6 of 6

Question: With `CC1CC(C)(C)C2=NCCN21` (stereo not drawn) as the molecule, how does the survivor count [7] read?
Answer: 0 of 6

Question: And the survivor count (dose: 400.0 mg/kg/injection, schedule: Q01DX009 (ip), vehicle: water)?
Answer: 0 of 6

Question: And the survivor count (dose: 800.0 mg/kg/injection, schedule: Q01DX009 (ip), vehicle: water)?
Answer: 0 of 6

Question: What about the survivor count (dose: 1600.0 mg/kg/injection, schedule: Q01DX009 (ip), vehicle: water) of the same molecule?
Answer: 0 of 6

Question: How did the survivor count (dose: 200.0 mg/kg/injection, schedule: Q01DX009 (ip), vehicle: Klucel (hydroxypropylcellulose) (HPC)) turn out when `CCC(C#N)(c1ccccc1)c1ccccc1` was run?
Answer: 6 of 6

Question: With `CCCCCCCCCCCCNC(=O)CCC(=O)O` as the molecule, how does the survivor count (dose: 150.0 mg/kg/injection, schedule: Q01DX009 (ip), vehicle: saline with Tween-80) read?
Answer: 2 of 7

Question: With `O=C1C=C(Nc2nc(O)cc(=O)[nH]2)c2ccccc2C1=O` as the molecule, how does the survivor count (dose: 225.0 mg/kg/injection, schedule: Q04DX003 (ip), vehicle: Klucel (hydroxypropylcellulose) (HPC)) read?
Answer: 3 of 6

Question: What about the survivor count (dose: 335.0 mg/kg/injection, schedule: Q04DX003 (ip), vehicle: Klucel (hydroxypropylcellulose) (HPC)) of the same molecule?
Answer: 2 of 6

Question: With `COc1ccc2c(c1OC)C(=O)NC2=O` as the molecule, how does the survivor count (dose: 200.0 mg/kg/injection, schedule: Q01DX008 (ip), vehicle: Klucel (hydroxypropylcellulose) (HPC)) read?
Answer: 6 of 6

Question: With `S=P(N1CCCC1)(N1CC1)N1CC1` as the molecule, how does the survivor count (dose: 20.0 mg/kg/injection, schedule: Q01DX009 (ip), vehicle: saline with Tween-80) read?
Answer: 6 of 6

Question: And the survivor count (dose: 40.0 mg/kg/injection, schedule: Q01DX009 (ip), vehicle: saline with Tween-80)?
Answer: 6 of 6

Question: `C[N+](C)(C)c1ncnc2nc[nH]c12` was tested. Which survivor count (dose: 400.0 mg/kg/injection, schedule: Q01DX001 (ip), vehicle: saline) did it give?
Answer: 3 of 6

Question: With `CC1CN(Cc2cccc(C#N)c2)CC(C)N1` (stereo not drawn) as the molecule, how does the survivor count (dose: 200.0 mg/kg/injection, schedule: Q04DX003 (ip), vehicle: water) read?
Answer: 2 of 6

Question: How did the T/C (dose: 50.0 mg/kg/injection, schedule: Q01DX001 (ip), vehicle: other) turn out when `COc1ccc(C2c3cc4c(c(OC)c3CC3OCC(=O)C32)OCO4)cc1OC` (stereo not drawn) was run?
Answer: 126 % of control

Question: What about the T/C (dose: 50.0 mg/kg/injection, schedule: Q01DX010 (ip), vehicle: other) of the same molecule?
Answer: 136 % of control

Question: What about the T/C (dose: 100.0 mg/kg/injection, schedule: Q01DX001 (ip), vehicle: other) of the same molecule?
Answer: 131 % of control

Question: And the survivor count (dose: 358.0 mg/kg/injection, schedule: Q01DX010 (ip), vehicle: saline)?
Answer: 5 of 6

Question: `NC(=O)/C=C/c1c[nH]c2nccnc12` was tested. Which T/C [8] did it give?
Answer: 144 % of control

Question: What about the T/C (dose: 25.0 mg/kg/injection, schedule: Q04DX003 (ip), vehicle: water) of the same molecule?
Answer: 125 % of control

Question: And the survivor count (dose: 50.0 mg/kg/injection, schedule: Q01DX009 (ip), vehicle: water)?
Answer: 3 of 6

Question: What about the T/C [9] of the same molecule?
Answer: 126 % of control

Question: What about the survivor count [9] of the same molecule?
Answer: 5 of 6

Question: `CSc1ncc2n1C=CN(C(=O)c1ccc([N+](=O)[O-])cc1)C2O` (stereo not drawn) was tested. Which survivor count [3] did it give?
Answer: 4 of 6

Question: How did the T/C (dose: 0.66 mg/kg/injection, schedule: Q01DX009 (ip), vehicle: saline with Tween-80) turn out when `CCOC(=O)c1c[nH]c2ccc(N(CCCl)CCCl)cc12` was run?
Answer: 129 % of control

Question: And the T/C (dose: 1.0 mg/kg/injection, schedule: Q01DX009 (ip), vehicle: saline with Tween-80)?
Answer: 132 % of control

Question: And the T/C (dose: 2.0 mg/kg/injection, schedule: Q04DX003 (ip), vehicle: saline with Tween-80)?
Answer: 136 % of control

Question: And the T/C (dose: 2.2 mg/kg/injection, schedule: Q04DX003 (ip), vehicle: saline with Tween-80)?
Answer: 133 % of control

Question: And the T/C (dose: 3.0 mg/kg/injection, schedule: Q04DX003 (ip), vehicle: saline with Tween-80)?
Answer: 136 % of control

Question: What about the T/C (dose: 3.3 mg/kg/injection, schedule: Q04DX003 (ip), vehicle: saline with Tween-80) of the same molecule?
Answer: 145 % of control

Question: `O=c1[nH]c2cc(Cl)c(Cl)cc2o1` was tested. Which survivor count [5] did it give?
Answer: 2 of 6

Question: Which results are given for `Cn1cc(/C=C/C(N)=O)c2nccnc21`?
Answer: survivor count (dose: 100.0 mg/kg/injection, schedule: Q01DX009 (ip), vehicle: water): 2 of 6; survivor count [7]: 0 of 6

Question: For `c1cc2c(c(CC3CO3)c1CC1CO1)OCCOCCOCCOCCO2` (stereo not drawn), which T/C (dose: 12.0 mg/kg/injection, schedule: Q01DX009 (ip), vehicle: saline + alcohol) is on record?
Answer: 127 % of control

Question: And the T/C (dose: 24.0 mg/kg/injection, schedule: Q01DX009 (ip), vehicle: saline + alcohol)?
Answer: 130 % of control

Question: What about the T/C [10] of the same molecule?
Answer: 137 % of control

Question: What about the survivor count [10] of the same molecule?
Answer: 3 of 6

Question: How did the T/C [4] turn out when `CCCC[N+](CCCC)(CCCC)CCCC.Cc1ccc([SH2+])c([SH2+])c1.Cc1ccc([SH2+])c([SH2+])c1.[Ni+3]` was run?
Answer: 145 % of control

Question: And the T/C [11]?
Answer: 130 % of control

Question: And the T/C (dose: 600.0 mg/kg/injection, schedule: Q04DX003 (ip), vehicle: Klucel (hydroxypropylcellulose) (HPC))?
Answer: 129 % of control [5 of 6 alive]

Question: Which results are given for `Clc1ncc(Br)c(Cl)n1`?
Answer: T/C (dose: 6.25 mg/kg/injection, schedule: Q01DX009 (ip), vehicle: Klucel (hydroxypropylcellulose) (HPC)): 130 % of control; T/C (dose: 12.5 mg/kg/injection, schedule: Q01DX009 (ip), vehicle: Klucel (hydroxypropylcellulose) (HPC)): 135 % of control; survivor count (dose: 25.0 mg/kg/injection, schedule: Q01DX009 (ip), vehicle: Klucel (hydroxypropylcellulose) (HPC)): 2 of 6; survivor count (dose: 185.0 mg/kg/injection, schedule: Q04DX003 (ip), vehicle: Klucel (hydroxypropylcellulose) (HPC)): 4 of 6

Question: For `NNc1cccc(Cl)n1`, which survivor count [2] is on record?
Answer: 4 of 6

Question: And the survivor count [1]?
Answer: 2 of 6

Question: `CC(=O)c1cccc(OCC(O)CN(C(C)C)C(C)C)c1` (stereo not drawn) was tested. Which survivor count [11] did it give?
Answer: 0 of 6

Question: How did the survivor count [8] turn out when `O=C(O)CSc1cc(-c2ccc(Cl)cc2)s[s+]1` was run?
Answer: 5 of 6

Question: What about the survivor count (dose: 32.0 mg/kg/injection, schedule: Q04DX003 (ip), vehicle: water) of the same molecule?
Answer: 5 of 6

Question: With `C=C(CNC(C)(C)C)C(=O)c1ccccc1` as the molecule, how does the survivor count (dose: 12.5 mg/kg/injection, schedule: Q01DX009 (ip), vehicle: saline) read?
Answer: 2 of 6

Question: `COc1ccc(OC)c(C(=O)C[n+]2ccccc2)c1` was tested. Which survivor count [12] did it give?
Answer: 6 of 6

Question: Which results are given for `CN1C(=O)NC(C)(c2cccs2)C1=O` (stereo not drawn)?
Answer: survivor count [6]: 3 of 6; survivor count [2]: 6 of 6; survivor count [1]: 5 of 6; survivor count (dose: 400.0 mg/kg/injection, schedule: Q01DX009 (ip), vehicle: saline with Tween-80): 0 of 6

Question: `Nc1ccc(CCc2ccccc2)cc1` was tested. Which survivor count (dose: 115.0 mg/kg/injection, schedule: Q01DX009 (ip), vehicle: saline with Tween-80) did it give?
Answer: 6 of 6

Question: What about the survivor count (dose: 170.0 mg/kg/injection, schedule: Q01DX009 (ip), vehicle: saline with Tween-80) of the same molecule?
Answer: 0 of 6

Question: What about the survivor count (dose: 225.0 mg/kg/injection, schedule: Q04DX003 (ip), vehicle: saline with Tween-80) of the same molecule?
Answer: 6 of 6

Question: `COC(=O)CCC(C)C1CCC2C3CCC4CC(SC(=N)N)CCC4(C)C3CCC12C` (stereo not drawn) was tested. Which T/C (dose: 12.5 mg/kg/injection, schedule: Q01DX009 (ip), vehicle: suspension in saline) did it give?
Answer: 125 % of control

Question: And the survivor count [1]?
Answer: 4 of 6

Question: Which results are given for `CN(C)c1ccc(/C=C/c2nccc3ccccc23)cc1`?
Answer: survivor count [12]: 6 of 6; survivor count (dose: 25.0 mg/kg/injection, schedule: Q01DX009 (ip), vehicle: saline with Tween-80): 6 of 6; survivor count [6]: 0 of 6
